According to patent US20250195685A1:
Numbering of substitutions follows the chain as printed. Numbers in names are those of the source. No constants are given. Whether binding was seen depends on the method and setting. Some binding calls cover weakened binding; strength is not graded here. Tags and fused reporters may be left off the sequences shown.

The chains behind the UniProt entries cited, without tags or fusion partners. Residues count along the entry.
UniProt P01732, residues 22-235: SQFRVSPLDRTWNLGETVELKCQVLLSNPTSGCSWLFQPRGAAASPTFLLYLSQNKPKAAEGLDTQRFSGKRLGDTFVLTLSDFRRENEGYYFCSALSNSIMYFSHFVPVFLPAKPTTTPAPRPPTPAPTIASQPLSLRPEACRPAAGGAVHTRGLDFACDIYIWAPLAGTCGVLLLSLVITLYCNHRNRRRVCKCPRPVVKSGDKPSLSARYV

B1: CBD1033 whole antibody, human IgG1 with Fc-silencing mutations L234A, L235A and P329A (CBD1033-hIgG1-LALAPA) (antibody, V domains shown)
VH: QVQLVQSGAEVKKPGASVKVSCKASRYTFTDYNLHWVRQAPGQGLEWMGFIYPYNGGTGYAQKFQGRVTMTVDTSTSTAYMELSSLRSEDTAVYYCARDHRYNEGVSFDYWGQGTTVTVSS
VL: DIQLTQSPSSLSASVGDRATITCRASESVDGFGNSFMNWYQQKPGKAPKLLIYLASNLESGVPSRFSGSGSGTDFTLTISSVQPEDFATYYCQQNNEDPYTFGQGTKLEIKR
B2: CBD1032 whole antibody, Fc-silenced human IgG1 (LALAPA) (antibody, V domains shown)
VH: B1 VH with V72R, A79V
VL: B1 VL with L4M, A19V, V82L
B3: CBD1035 whole antibody, Fc-silenced human IgG1 (LALAPA) (antibody, V domains shown)
VH: B1 VH with V20I, M48I, V68A, M70L, V117L
VL: B1 VL
B4: CBD1037-hIgG1-LALAPA (antibody, V domains shown)
VH: B1 VH with T74Y
VL: B1 VL
B5: CBD1039 whole antibody, Fc-silenced human IgG1 (LALAPA) (antibody, V domains shown)
VH: B1 VH with V20I, M48I, V68A, M70L, T74Y, V117L
VL: B1 VL
B6: CBD1036-hIgG1-LALAPA (antibody, V domains shown)
VH: B1 VH with V20I, M48I, V68A, M70L, V117L
VL: B1 VL with G72R
B7: CBD1038-hIgG1-LALAPA (antibody, V domains shown)
VH: B1 VH with T74Y
VL: B1 VL with G72R
B8: CBD1034 whole antibody, Fc-silenced human IgG1 (LALAPA) (antibody, V domains shown)
VH: B1 VH
VL: B1 VL with G72R
B9: CBD1040 whole antibody, Fc-silenced human IgG1 (LALAPA) (antibody, V domains shown)
VH: B1 VH with V20I, M48I, V68A, M70L, T74Y, V117L
VL: B1 VL with G72R

Target: human CD8 on cells (CD8-overexpressing HEK293T cells, SupT1, HPB-ALL, human T cells, transfected HEK293 of the proteome array) (human) (UniProt P01732)
Experiment: flow cytometry on expanded human T cells

binding | Binder
binds | B1

Target: human CD8 on cells (CD8-overexpressing HEK293T cells, SupT1, HPB-ALL, human T cells, transfected HEK293 of the proteome array) (human) (UniProt P01732)
Experiment: flow cytometry, gMFI fold over background (FIG. 8B)

binding | Binder
binds | B1

Target: human CD8 on cells (CD8-overexpressing HEK293T cells, SupT1, HPB-ALL, human T cells, transfected HEK293 of the proteome array) (human) (UniProt P01732)
Experiment: flow cytometry, Human Expanded T cells Donor 5 and Donor 6, gated on CD4- T cells, anti-human Fc BV421

binding | Binder
binds | B1

Target: human CD8 on cells (CD8-overexpressing HEK293T cells, SupT1, HPB-ALL, human T cells, transfected HEK293 of the proteome array) (human) (UniProt P01732)
Experiment: flow cytometry on CD8-overexpressing HEK293T cells, anti-human Fc BV421, gMFI normalized to secondary alone

binding | Binder
binds | B2
binds | B1
binds | B3
binds | B4
binds | B5
binds | B6
binds | B7
binds | B8
binds | B9
